Taken from: PubChem BioAssay AID1159578 (Peter MacCallum Cancer Centre, 2015)
Purpose: 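Knock-downs that alter how fast lymphatic endothelial cells migrate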 (primary screen). Cell system: human lymphatic endothelial cells. Reagent: siRNA pool against human genes, 40 nM. Time to read-out: 48 h after transfection. Read-out: 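Cells stained with dye and imaged after a scratch; covered wound area and nuclei counted, duplicates averaged, migration set against mock wells and turned into a robust z-score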. Direction: migration robust z-score: higher = faster migration into the scratch; nuclei per well: higher = more cells in the well. Call rule: 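Pools averaging fewer than 3300 nuclei are never called; remaining pools count as changed when migration robust z lies outside -2 to 2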. Calls: active = migration changed; inactive = no migration change, or too few cells.
The deposit covers about 18,000 reagents; shown is a part drawn at random. About 1,030 of all reagents (5.7%) were called active. 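Inactive calls also include pools with fewer than 3300 nuclei, whose migration was not assessed.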 The raw values are shown without normalisation. Unmarked entries are inactive. Further read-outs or replicates are left out here.

For IGSF10 the deposit lists migration robust z-score -0.84; nuclei per well, duplicate mean 4799. Against TNFRSF11A, the entry reads migration robust z-score 0.9; nuclei per well, duplicate mean 6038. With knock-down of SLC2A1, the record shows migration robust z-score -0.11; nuclei per well, duplicate mean 4920. After knock-down of ZNF107, the record shows migration robust z-score 0.72; nuclei per well, duplicate mean 6582. Against STPG2, the values are migration robust z-score 1.12; nuclei per well, duplicate mean 6064. After knock-down of DPF1, the screen gave migration robust z-score 1.02; nuclei per well, duplicate mean 4902.

HDAC7 scored migration robust z-score 0.64; nuclei per well, duplicate mean 5801. With knock-down of FBXO34, the record shows migration robust z-score 1.19; nuclei per well, duplicate mean 5724. SLC17A7 showed migration robust z-score 0.34; nuclei per well, duplicate mean 3940. With knock-down of TYRP1, the record shows migration robust z-score 1.02; nuclei per well, duplicate mean 6266. Knock-down of ZNF180 resulted in: migration robust z-score 1.4; nuclei per well, duplicate mean 6267. Depletion of PRSS57 gave: migration robust z-score 1.04; nuclei per well, duplicate mean 4291.

For BRAT1, the values are migration robust z-score -0.21; nuclei per well, duplicate mean 6461. Knock-down of EIF3C came out at: migration robust z-score -2.18 (active); nuclei per well, duplicate mean 4909. Depletion of GRAP2 came out at: migration robust z-score 0.16; nuclei per well, duplicate mean 5788.

Entries listed above marked active (1):
EIF3C: migration robust z-score = -2.18 (active); nuclei per well, duplicate mean = 4909

Additional entries follow:
Against CNGB1, the values are migration robust z-score -1.34; nuclei per well, duplicate mean 6022. P2RX2 scored migration robust z-score -3.37 (active); nuclei per well, duplicate mean 3630. With knock-down of HCLS1 the results were migration robust z-score -0.58; nuclei per well, duplicate mean 5624. With knock-down of CHD1, the record shows migration robust z-score -0.16; nuclei per well, duplicate mean 6239. PRG3 scored migration robust z-score 2.65 (active); nuclei per well, duplicate mean 5698. ZNF419 showed migration robust z-score 0.92; nuclei per well, duplicate mean 6234.

ERBB3 showed migration robust z-score -4.54; nuclei per well, duplicate mean 2918. For CTRB1, the entry reads migration robust z-score -1.09; nuclei per well, duplicate mean 6506. Against MFSD11, the values are migration robust z-score -1.31; nuclei per well, duplicate mean 5752. Depletion of MARCHF10 gave: migration robust z-score -2.54 (active); nuclei per well, duplicate mean 4032. APBB3 scored migration robust z-score 0; nuclei per well, duplicate mean 6040. After knock-down of FKBP1A, the screen gave migration robust z-score -1.22; nuclei per well, duplicate mean 5498.
